Assay results published in publication PMC4826180.
Results are given in words; binding and its absence hold for the method and conditions named. In cells and extracts the contact can be indirect. Some results given as binding are weak or reduced against the parent protein; the word gives no strength.

Chains of the proteins cited; added tags and fusions are not shown. Residues count along the entry.
UniProt P02751, residues 32-2477: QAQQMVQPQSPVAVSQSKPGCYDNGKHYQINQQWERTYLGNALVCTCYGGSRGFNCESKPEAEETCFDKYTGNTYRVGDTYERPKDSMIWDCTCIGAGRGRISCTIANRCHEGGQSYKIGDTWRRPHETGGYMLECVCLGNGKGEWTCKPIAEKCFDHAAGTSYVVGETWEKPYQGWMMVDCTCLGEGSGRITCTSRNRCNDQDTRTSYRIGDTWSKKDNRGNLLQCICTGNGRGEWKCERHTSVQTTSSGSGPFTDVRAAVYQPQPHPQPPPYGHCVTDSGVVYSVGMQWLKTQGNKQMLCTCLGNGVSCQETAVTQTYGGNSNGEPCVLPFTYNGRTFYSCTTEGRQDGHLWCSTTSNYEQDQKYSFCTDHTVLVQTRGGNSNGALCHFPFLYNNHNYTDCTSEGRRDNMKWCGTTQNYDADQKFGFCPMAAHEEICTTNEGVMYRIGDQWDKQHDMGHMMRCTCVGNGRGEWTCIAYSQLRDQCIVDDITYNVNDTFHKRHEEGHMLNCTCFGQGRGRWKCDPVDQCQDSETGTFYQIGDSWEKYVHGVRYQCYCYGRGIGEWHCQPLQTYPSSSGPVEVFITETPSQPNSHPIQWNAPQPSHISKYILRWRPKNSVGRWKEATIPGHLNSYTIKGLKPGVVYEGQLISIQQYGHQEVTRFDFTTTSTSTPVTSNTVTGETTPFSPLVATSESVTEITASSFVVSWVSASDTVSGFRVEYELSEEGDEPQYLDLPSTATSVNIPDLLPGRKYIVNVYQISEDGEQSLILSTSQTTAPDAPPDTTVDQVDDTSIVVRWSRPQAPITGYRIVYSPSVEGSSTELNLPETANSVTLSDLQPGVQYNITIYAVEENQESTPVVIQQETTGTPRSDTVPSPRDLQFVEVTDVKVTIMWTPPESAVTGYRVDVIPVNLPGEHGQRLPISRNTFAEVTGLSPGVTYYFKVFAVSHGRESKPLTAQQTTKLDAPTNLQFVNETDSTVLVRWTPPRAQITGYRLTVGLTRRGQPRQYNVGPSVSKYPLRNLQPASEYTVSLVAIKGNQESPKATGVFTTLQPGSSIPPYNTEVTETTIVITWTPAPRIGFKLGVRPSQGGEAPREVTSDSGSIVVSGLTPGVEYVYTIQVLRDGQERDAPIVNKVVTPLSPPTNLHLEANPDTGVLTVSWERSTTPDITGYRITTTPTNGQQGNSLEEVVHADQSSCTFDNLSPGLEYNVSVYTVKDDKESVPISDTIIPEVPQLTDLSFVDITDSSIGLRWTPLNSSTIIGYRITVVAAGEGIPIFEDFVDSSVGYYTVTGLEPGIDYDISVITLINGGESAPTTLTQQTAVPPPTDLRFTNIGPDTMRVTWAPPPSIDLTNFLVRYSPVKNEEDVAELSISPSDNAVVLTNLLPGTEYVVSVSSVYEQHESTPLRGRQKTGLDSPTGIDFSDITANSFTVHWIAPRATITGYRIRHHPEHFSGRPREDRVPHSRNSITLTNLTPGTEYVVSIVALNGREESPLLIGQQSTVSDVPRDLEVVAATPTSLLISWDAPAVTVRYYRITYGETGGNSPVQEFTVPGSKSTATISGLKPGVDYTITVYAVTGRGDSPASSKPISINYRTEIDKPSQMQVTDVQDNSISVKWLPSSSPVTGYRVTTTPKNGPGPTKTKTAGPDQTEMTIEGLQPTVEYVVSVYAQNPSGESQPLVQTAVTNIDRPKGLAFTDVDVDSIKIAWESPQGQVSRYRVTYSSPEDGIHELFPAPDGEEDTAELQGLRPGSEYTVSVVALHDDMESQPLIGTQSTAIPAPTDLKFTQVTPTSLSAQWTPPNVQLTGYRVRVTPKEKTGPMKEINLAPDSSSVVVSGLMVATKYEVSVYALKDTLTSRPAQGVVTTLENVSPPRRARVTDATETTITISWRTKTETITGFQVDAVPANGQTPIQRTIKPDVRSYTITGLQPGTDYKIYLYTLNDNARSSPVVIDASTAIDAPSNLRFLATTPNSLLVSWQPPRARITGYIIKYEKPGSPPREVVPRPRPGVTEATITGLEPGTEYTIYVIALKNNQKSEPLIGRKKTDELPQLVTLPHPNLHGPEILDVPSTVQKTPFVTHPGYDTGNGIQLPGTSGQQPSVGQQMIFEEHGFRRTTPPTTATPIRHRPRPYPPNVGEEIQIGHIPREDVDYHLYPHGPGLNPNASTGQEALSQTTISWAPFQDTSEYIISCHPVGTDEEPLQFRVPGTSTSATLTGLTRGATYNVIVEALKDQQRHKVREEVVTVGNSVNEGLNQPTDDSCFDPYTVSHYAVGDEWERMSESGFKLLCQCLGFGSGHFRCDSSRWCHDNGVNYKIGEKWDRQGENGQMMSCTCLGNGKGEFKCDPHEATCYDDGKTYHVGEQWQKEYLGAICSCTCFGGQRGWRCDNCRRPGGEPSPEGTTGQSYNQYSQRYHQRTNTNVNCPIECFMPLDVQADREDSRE

Target: T1, Regenerating islet-derived 3 alpha (REG3A) (human (endogenous in CRC cells)) (UniProt Q06141)
T1 sequence: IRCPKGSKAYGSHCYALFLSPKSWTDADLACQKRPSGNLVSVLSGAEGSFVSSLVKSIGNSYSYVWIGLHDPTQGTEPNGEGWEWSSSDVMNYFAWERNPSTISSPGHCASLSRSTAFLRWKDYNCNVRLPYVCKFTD
Assay: co-IP; CRC cell lysates reacted with anti-REG3A (Ab134309, Abcam) or control IgG for 1 h at 4°C, then protein A-agarose for 3 h at 4°C; washed three times in lysis buffer; western blot

- binding: binds
Substance: Fibronectin1 (FN1) (from UniProt P02751 32-2477)
